# PubChem BioAssay AID1671195 | Yale University – 2021
# Screen: 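Genes whose knockdown alters LDL uptake in liver cancer cells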 (primary screen)
# Cells: human Huh7 hepatoma cells
# Reagents: siRNA pool against human genes, 18 nM
# Duration: about 2 to 2.5 days of knockdown, then 8 h LDL uptake
# Treatment: DiI-labelled LDL at 30 µg/ml for 8 h, in lipoprotein-deficient serum medium
# Measurement: 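Fluorescent LDL signal imaged in cells, scaled to the plate median, robust z-score for each replicate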
# Reading the numbers: robust z-score: higher = more LDL uptake after knockdown
# Call rule: 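Active when two or more replicates show a robust z-score above 2 or below -2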
# This is one part, drawn at random, of about 22,000 reagents tested. Of all reagents, about 1,510 (6.9%) got an active call. 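Active includes knockdowns raising or lowering LDL uptake; positive z-scores mean more uptake, negative mean less.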 No sequences are given here.
Gene,PubChem SID,"robust z-score, replicate 1","robust z-score, replicate 2","robust z-score, replicate 3",Outcome
LINC00917,SID442891877,-0.245,0.789,0.161,inactive
SULT1C2,SID442887634,0.793,0.722,1.1,inactive
CCDC83,SID442897369,-0.301,-0.412,-0.423,inactive
KMT5A,SID442903878,-1.2,-1.62,-1.44,inactive
XAGE3,SID442895621,-0.464,-0.078,-0.0197,inactive
LIPC,SID442890992,0.182,0.418,0.434,inactive
MAP3K7CL,SID442886793,0.782,0.769,1.64,inactive
COX11,SID442892793,0.0209,-0.204,0.552,inactive
SIT1,SID442900495,-1.3,0.492,-1.49,inactive
RBM15,SID442892392,-0.0265,0.18,0.366,inactive
ZFP57,SID442902120,-1.12,-1.07,-0.852,inactive
C20orf173,SID442890232,0.628,0.496,0.212,inactive
TSPYL5,SID442892597,0.548,-0.0431,-0.0654,inactive
TUBB7P,SID442889082,0.132,1.13,0.587,inactive
FAM209A,SID442885900,1.13,1.51,1.35,inactive
LOC441349 (retired record),SID442890012,0.646,0.302,0.478,inactive
FUT8,SID442903021,-1.29,-1.13,-1.17,inactive
BAZ2B,SID442904770,-1.79,-2.13,-1.74,inactive
OPA3,SID442886798,1.29,0.612,1.29,inactive
SLC11A1,SID442897329,-0.504,-0.19,-0.427,inactive
IDH3G,SID442903504,-1.26,-1.51,-1.17,inactive
PDXDC2P-NPIPB14P,SID442885196,1.58,2.02,1.29,inactive
PDXDC2P-NPIPB14P,SID442898264,-0.327,-0.403,-0.709,inactive
LOC107987397,SID442893742,-0.0392,0.0853,-0.000644,inactive
DEFB129,SID442890009,0.544,0.618,0.265,inactive
ERVV-1,SID442900373,-0.99,-0.651,-0.615,inactive
SPARCL1,SID442900976,-0.432,-0.507,-1.56,inactive
FAM167B,SID442889533,0.38,0.801,0.453,inactive
GPKOW,SID442898618,-1.07,0.511,-1,inactive
RPL39L,SID442892042,-0.905,0.789,0.763,inactive
C19orf38,SID442890775,0.108,0.431,0.571,inactive
FSTL3,SID442902562,-2.34,-1.52,0.548,inactive
TAS2R4,SID442898230,-0.285,-1.25,0.111,inactive
SNX29,SID442886419,1.5,0.732,1.26,inactive
LOC389405 (retired record),SID442884322,-1.91,-2.26,-1.65,active
NKX2-2,SID442884043,2.31,1.64,2.15,active
SOSTDC1,SID442893392,-0.18,0.178,0.169,inactive
TNFRSF13C,SID442892946,-0.864,0.846,0.336,inactive
CLDN8,SID442899800,-0.897,-0.503,-0.613,inactive
ACTRT1,SID442891097,-0.33,0.532,0.793,inactive
ANKRD36C,SID442897639,-0.289,-0.573,-0.359,inactive
ZNF300,SID442887179,0.443,1.73,0.727,inactive
KANK4,SID442884111,1.58,2.24,2.01,active
DSN1,SID442900692,-0.757,-1.11,-0.514,inactive
GSDMB,SID442898598,-0.741,0.56,-1.37,inactive
C9orf163,SID442894178,0.231,-0.084,-0.253,inactive

Not a retest: entries from further up.
Gene,PubChem SID,"robust z-score, replicate 1","robust z-score, replicate 2","robust z-score, replicate 3",Outcome
FAM209A,SID442885900,1.13,1.51,1.35,inactive
LOC441349 (retired record),SID442890012,0.646,0.302,0.478,inactive
FUT8,SID442903021,-1.29,-1.13,-1.17,inactive
BAZ2B,SID442904770,-1.79,-2.13,-1.74,inactive
